# Laboratory results reported in PubChem BioAssay AID1347075 (National Center for Advancing Translational Sciences (NCATS), 2019).
# Where “and” joins values, the source holds several entries; their conditions need not be identical. Equal entries are not always repeated. In all, about 400,000 compounds went through this assay and about 5,500 (1.4%) were called active. Inconclusive results, whose numbers are uncertain, are shown with a selection of clear calls. The call rests on the fitted dose curve; in most records, active means well fitted cell-killing curve with a large enough effect; inconclusive means small, poorly fitted or top-dose-only effect, or effect the other way; inactive means flat fitted curve, though single readings scatter. Where the call is inconclusive, the potency comes from a doubtful curve fit.
# Assay: qHTS assay for MDR1-selective chemotherapeutics: Primary screen using the parental adenocarcinoma cell KB-3-1; further: nearly all actives have a fitted effect of over 60% in size
# Conditions: KB-3-1 viability, CellTiter-Glo ATP luminescence, 72 h; activity change, negative = cytotoxic: at 46.1 µM (top of the series)
# Method in brief: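 Parental KB-3-1 viability, qHTS format: 72 h compound exposure, 37 °C; CellTiter-Glo; media-only wells and DMSO plates as controls; concentration-effect fits on corrected data.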
# On the % scale 0 is the no-effect control and ±100 the full control effect; potency means the concentration at half of the fitted maximal effect.
SMILES,"activity change, negative = cytotoxic",Potency
Cc1occc1C(=O)Nc1cccc(C(F)(F)F)c1,inactive: 0%,–
Cc1cc(Br)cc(Cl)c1OC(=O)c1ccncc1,–,"inconclusive: 32.6 µM [rising, single point]"
NC1=NC(=Nc2ccc(Br)cc2)c2ccccc21,–,"inconclusive: 29.1 µM [cytotoxic, single point]"
CC(C)=CCC/C(C)=C/CNC(=O)C[C@H]1C[C@H](C(=O)N2CCOCC2)[C@@]2(C)c3[nH]c4ccc(Cl)cc4c3CCN2C1=O,–,"inconclusive: 29.1 µM [cytotoxic, single point]"
Cc1ccc(CN2CC(C(=O)Nc3cccc(S(=O)(=O)N4CCCCC4)c3)CC2=O)cc1 (stereo not given),–,"inconclusive: 14.6 µM [cytotoxic, partial curve, poor fit]"
CC(C)C[C@H](NC(=O)c1nc[nH]c1C(=O)NCC(=O)OCc1ccccc1)C(=O)OC(C)(C)C,inactive: 15.5%,–
CN(C)c1ccc(/C=C2\c3ccccc3C(=O)N2c2ccccc2)cn1,–,"inconclusive: 29.1 µM [cytotoxic, single point]"
Cc1nnc(N2CCN(c3ccccc3F)CC2)c2c1nnn2Cc1ccccc1Cl,inactive: 0.144%,–
O=S(=O)(c1ccc(Cl)cc1)N1CCCC1c1nc2ccccc2s1 (stereo not given),–,"inconclusive: 20.6 µM [cytotoxic, partial curve, poor fit]"
COc1ccc(N2CCN(CC(O)COc3ccc(C(C)C)c(C)c3)CC2)cc1 (stereo not given),–,"inconclusive: 16.4 µM [cytotoxic, single point]"
O=C(Nc1ccc(N2CCCC2)cc1)c1cccc(F)c1,–,"inconclusive: 20.6 µM [cytotoxic, partial curve, poor fit]"
COCc1nnc(NC(=O)c2ccc(S(=O)(=O)N(C)c3ccccc3)cc2)o1,–,"inconclusive: 25.9 µM [cytotoxic, partial curve, poor fit]"
Cc1ccc(NC(=O)/C=C/c2ccco2)cc1S(=O)(=O)N1CCCCCC1,–,"inconclusive: 25.9 µM [cytotoxic, single point]"
Cc1csc(NC(=O)CSc2nc3ccccc3c(=O)[nH]2)n1,inactive: -3.97%,–
CC1(CCC(=O)N2CCCC(N3CCN(c4cccc(C(F)(F)F)c4)CC3)C2)CC1 (stereo not given),–,"inconclusive: 16.4 µM [cytotoxic, single point]"
O=C(c1[nH]c(C(F)(F)F)nc1-c1ccccc1)N1CCN(c2ncccc2C(F)(F)F)CC1,–,"inconclusive: 29.1 µM [cytotoxic, single point]"
O=C(Nc1ccc(Cl)c(Cl)c1)C1CCN(C(=O)c2ccco2)CC1,inconclusive: 37.9%,–
O=C(c1ccc2c(c1)N(Cc1ccccc1F)C(=O)c1ccccc1S2=O)N1CCCCC1 (stereo not given),–,"inconclusive: 23.1 µM [rising, single point]"
CCCCNC(=O)C1CCC(CNS(=O)(=O)c2c(C)cc(C)cc2C)CC1 (stereo not given),inactive: -7.31%,–
C#Cc1cccc(Nc2nc(NCc3ccccc3OC)nc3ccsc23)c1,–,"inconclusive: 25.9 µM [cytotoxic, single point]"
COc1ccc(C(=O)Nc2cccc(NC(=O)c3cccs3)c2)cc1OC,inactive: -2.53%,–
COc1ccc(/C=C/C(=O)c2ccc([N+](=O)[O-])o2)cc1OC,–,"inconclusive: 2.31 µM [cytotoxic, partial curve, poor fit]"
Cc1ccnc(NC(=O)CCNS(=O)(=O)c2ccc(C)c(C)c2)c1,–,"inconclusive: 29.1 µM [rising, single point]"

# Quoted from the listing:
# In Potency, C#Cc1cccc(Nc2nc(NCc3ccccc3OC)nc3ccsc23)c1 shows inconclusive: 25.9 µM [cytotoxic, single point]
# In Potency, COc1ccc(/C=C/C(=O)c2ccc([N+](=O)[O-])o2)cc1OC shows inconclusive: 2.31 µM [cytotoxic, partial curve, poor fit]

# (more compounds)

SMILES,"activity change, negative = cytotoxic",Potency
COc1ccc(OC)c(C(=O)/C=C/c2cccnc2)c1,–,"inconclusive: 23.1 µM [cytotoxic, single point]"
CC(C)C(=O)Nc1ccc(Nc2ccccc2)cc1,–,"inconclusive: 16.4 µM [rising, partial curve, poor fit]"
c1ccc(CNc2nnnn2-c2ccccc2)cc1,–,"inconclusive: 20.6 µM [cytotoxic, single point]"
CN(CC(=O)Nc1cc(S(=O)(=O)N2CCCC2)ccc1Cl)Cc1ccc2c(c1)OCO2,–,"inconclusive: 18.4 µM [cytotoxic, single point]"
CCCCNC(=O)CNC(=S)N(Cc1ccccc1F)C1CCCCC1,inactive: 4%,–
COc1cc(NC(=O)C2C3CCC(O3)C2C(=O)O)cc(OC)c1 (stereo not given),–,"inconclusive: 23.1 µM [cytotoxic, single point]"
COc1ccc(-c2nc(C)c(CCNC(=O)c3cc(OC)c(OC)c(OC)c3)s2)cc1OC,–,"inconclusive: 5.8 µM [rising, partial curve, poor fit]"
O=C(NCc1ccccc1)c1cc2ccccc2o1,–,inactive
CC(=O)Nc1cccc(Oc2ncnc3scc(-c4ccccc4)c23)c1,inactive: -12.8%,–
O=C(NCCCc1ccccc1)C1CCC(=O)N(CCc2ccc(Cl)cc2)C1 (stereo not given),–,"inconclusive: 29.1 µM [cytotoxic, partial curve, poor fit]"
COC(=O)CSc1nc2ccc(C)cc2cc1C#N,inactive: 10.1%,–
O=c1c2c([N+](=O)[O-])cc([N+](=O)[O-])cc2sn1Cc1ccccc1,–,"inconclusive: 16.4 µM [cytotoxic, single point]"
Brc1cccc(OCCN2CCc3ccccc3C2)c1,inactive: 9.09%,–
COC(=O)c1ccccc1NC(=O)c1ccccc1SC,inactive: -11.1%,–
COC(=O)Cc1c(C)[nH]n(-c2cc(Cl)cc(Cl)c2)c1=O,inactive: -1.55%,–
Cc1ccc(C)c(OCC(=O)Nc2nc3ccc([N+](=O)[O-])cc3s2)c1C,–,"inconclusive: 16.4 µM [cytotoxic, partial curve, poor fit]"
Cc1cc(OC(C)C(=O)NC2CCN(Cc3ccccc3)CC2)c2c(C)cc(=O)oc2c1 (stereo not given),–,"inconclusive: 7.31 µM [cytotoxic, partial curve, poor fit]"
COc1cc(/C=C/c2nc3ccccc3c(=O)[nH]2)cc(OC)c1OC,–,active: 2.91 µM
CCOCCC(=O)Nc1ccc2c(c1)c(=O)n(C)n2CC=C(C)C,–,active: 3.66 µM
CCN(CC)S(=O)(=O)c1cccc(-c2nnc(SCc3ncc(-c4ccccc4)o3)n2C)c1,inactive: 10%,–
CCc1noc(C)c1C(=O)N1CCN(S(=O)(=O)c2ccc(Br)cc2)CC1,inactive: -1.29%,–
CC(=O)Nc1nc(C)c(-c2csc(Nc3ccccn3)n2)s1,–,"inconclusive: 18.4 µM [cytotoxic, partial curve, poor fit] and inconclusive: 16.4 µM [cytotoxic, single point]"
